Data on one molecule can be found in patent publication US20040152871A1.

Protein sequences, listed by entry. Tags and fused reporters are not part of them. Lines headed by an entry give the natural chain unless they say otherwise; changes in a name come on top.
UniProt Q86TM6: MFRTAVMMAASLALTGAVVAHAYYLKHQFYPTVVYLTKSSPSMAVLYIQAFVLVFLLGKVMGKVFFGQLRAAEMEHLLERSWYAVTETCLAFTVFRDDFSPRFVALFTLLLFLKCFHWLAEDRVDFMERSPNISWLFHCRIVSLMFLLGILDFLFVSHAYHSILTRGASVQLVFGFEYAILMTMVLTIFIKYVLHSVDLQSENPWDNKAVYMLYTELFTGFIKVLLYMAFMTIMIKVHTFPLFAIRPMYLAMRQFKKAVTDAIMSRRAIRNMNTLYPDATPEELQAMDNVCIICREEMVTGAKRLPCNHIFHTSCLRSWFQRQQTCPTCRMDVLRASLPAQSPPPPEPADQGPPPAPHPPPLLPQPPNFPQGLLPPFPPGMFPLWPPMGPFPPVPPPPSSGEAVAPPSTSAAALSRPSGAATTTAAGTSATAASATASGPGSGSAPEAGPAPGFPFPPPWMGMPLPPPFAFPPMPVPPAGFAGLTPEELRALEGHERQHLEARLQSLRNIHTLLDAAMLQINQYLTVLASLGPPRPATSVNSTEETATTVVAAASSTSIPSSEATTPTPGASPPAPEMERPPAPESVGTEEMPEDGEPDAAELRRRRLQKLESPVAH

For the experiment, the target named is GST-partial Synoviolin fusion protein (human) (UniProt Q86TM6). Briefly: expression library screening, plaque protein on nitrocellulose, 32P-labeled GST-partial Synoviolin as probe.

Results are given in words; binding and its absence hold for the method and conditions named. Some entries that bind do so weakly or less than the wild type.

B1: Synoviolin ligand (SL), clone expressed from the RA patient synovial cell cDNA expression library (ligand, human, UniProt Q12805 1-493, looked up)
chain: MLKALFLTMLTLALVKSQDTEETITYTQCTDGYEWDPVRQQCKDIDECDIVPDACKGGMKCVNHYGGYLCLPKTAQIIVNNEQPQQETQPAEGTSGATTGVVAASSMATSGVLPGGGFVASAAAVAGPEMQTGRNNFVIRRNPADPQRIPSNPSHRIQCAAGYEQSEHNVCQDIDECTAGTHNCRADQVCINLRGSFACQCPPGYQKRGEQCVDIDECTIPPYCHQRCVNTPGSFYCQCSPGFQLAANNYTCVDINECDASNQCAQQCYNILGSFICQCNQGYELSSDRLNCEDIDECRTSSYLCQYQCVNEPGKFSCMCPQGYQVVRSRTCQDINECETTNECREDEMCWNYHGGFRCYPRNPCQDPYILTPENRCVCPVSNAMCRELPQSIVYKYMSIRSDRSVPSDIFQIQATTIYANTINTFRIKSGNENGEFYLRQTSPVSAMLVLVKSLSGPREHIVDLEMLTVSSIGTFRTSSVLRLTIIVGPFSF
Regarding B1, the binding entry is given as “binds”.
